Results as given in publication PMC1240052.
These are yes or no findings as the source states them, for the method shown. Binding seen in cells or lysates may run through a third protein. Some results given as binding are weak or reduced against the parent protein; the word gives no strength.

How the values were obtained:
[1] = target: wild-type human epidermal growth factor receptor (EGFR) (human) (UniProt P00533); assay: co-IP; EGFR precipitated with anti-EGFR conjugated beads from 200 ug lysate of NIH-3T3 cells kept in 0.5% calf serum for 24 h and stimulated with 20 ng/ml EGF for 8 min; lysis buffer 50 mM Tris-HCl pH 7.4, 150 mM NaCl, 2.5 mM EDTA, 1% Triton X-100, 0.25% IPEGAL; blot with anti-Shc
[2] = target: L858R mutant human epidermal growth factor receptor (EGFR) (human) (UniProt P00533); assay: as above
[3] = target: wild-type human epidermal growth factor receptor (EGFR) (human) (UniProt P00533); assay: co-IP; EGFR precipitated with anti-EGFR conjugated beads from 200 ug lysate of NIH-3T3 cells kept in 0.5% calf serum for 24 h and left unstimulated (no EGF); lysis buffer 50 mM Tris-HCl pH 7.4, 150 mM NaCl, 2.5 mM EDTA, 1% Triton X-100, 0.25% IPEGAL; blot with anti-Shc
[4] = target: L858R mutant human epidermal growth factor receptor (EGFR) (human) (UniProt P00533); assay: as above

B1: adaptor protein Shc (protein, UniProt P98083 1-579)
chain: MDLLPPKPKYNPLRNESLSSLEEGASGSTPPEELPSPSASSLGPILPPLPGDDSPTTLCSFFPRMSNLKLANPAGGRLGPKGEPGKAAEDGEGSAGAALRDSGLLPLLQDMNKLSGGGGRRTRVEGGQLGGEEWTRHGSFVNKPTRGWLHPNDKVMGPGVSYLVRYMGCVEVLQSMRALDFNTRTQVTREAISLVCEAVPGAKGATRRRKPCSRPLSSILGRSNLKFAGMPITLTVSTSSLNLMAADCKQIIANHHMQSISFASGGDPDTAEYVAYVAKDPVNQRACHILECPEGLAQDVISTIGQAFELRFKQYLRNPPKLVTPHDRMAGFDGSAWDEEEEEPPDHQYYNDFPGKEPPLGGVVDMRLREGAARPTLPSAQMSSHLGATLPIGQHAAGDHEVRKQMLPPPPCPGRELFDDPSYVNIQNLDKARQAGGGAGPPNPSLNGSAPRDLFDMKPFEDALRVPPPPQSMSMAEQLQGEPWFHGKLSRREAEALLQLNGDFLVRESTTTPGQYVLTGLQSGQPKHLLLVDPEGVVRTKDHRFESVSHLISYHMDNHLPIISAGSELCLQQPVDRKV
[1]
  binding: binds
[2]
  binding: binds
[3]
  binding: no binding (condition: cells without EGF stimulation)
[4]
  binding: binds weakly
